Reference: PubChem BioAssay AID2685 (National Center for Advancing Translational Sciences (NCATS), 2010)
The other results are listed elsewhere or left out. The main result of the screen is listed elsewhere. These columns were measured beside it and carry no call. The list favours compounds with an active or inconclusive main result. The note in brackets gives the kind of curve behind each potency; many fits are weak.

Assay: qHTS Assay for Lipid Storage Modulators in Drosophila S3 Cells;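 on cell number change: cells counted by Cell Tracker Red CMTPX staining in the red channel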
Details: BODIPY lipid droplet fluorescence, 18-24 h; for cell number change: measured here: cell count max response, cells fed with added oleic acid
Outline: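 Drosophila S3 cells got compounds at several concentrations plus oleic acid (400 uM solution). Laser-scanning cytometry with 488 nm excitation read lipid droplets at 500-530 nm and cells at 575-640 nm. Percent activity was relative to 20 uM Triacsin C.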

[1] = measured here: lipid fluorescence (Fed channel) AC50, cells fed with added oleic acid
[2] = measured here: cell number channel AC50, cells fed with added oleic acid

Row | Structure (SMILES) | cell number change [%] | AC50 [1] | AC50 [2]
1 | O=C(N=C1SC2CS(=O)(=O)CC2N1c1cccc(Cl)c1)C1CCCO1 (centres undefined) | 11 | – | –
2 | O=C1c2cccc3cccc(c23)C(=O)N1c1ccccn1 | 18 | 0.164 µM [rising, full curve, poor fit] | –
3 | Cc1ccc(C)c(N2CCN(CCCNC(=O)Cn3cc4c(n3)CCC(C)C4)CC2)c1 (centres undefined) | -44 | 29.1 µM [falling, single point] | 32.6 µM [falling, single point]
4 | CC(NC(=O)Nc1cccc([N+](=O)[O-])c1)c1ccc2c(c1)OCO2 (centres undefined) | -51.5 | – | 29.1 µM [falling, single point]
5 | O=C1CC(c2cccnc2)c2cc3c(cc2N1)OCO3 (centres undefined) | 1.42 | 0.082 µM [rising, full curve, poor fit] | –
6 | CCC(C)C(=O)Nc1nc(C)c(-c2csc(Nc3cc(Cl)ccc3OC)n2)s1 (centres undefined) | -29.6 | 5.17 µM [falling, full curve, poor fit] | –
7 | COC(=O)C1CCCCN1C(=O)c1ccc2oc(Cc3ccccc3)nc2c1 (centres undefined) | -13.9 | – | 0.461 µM [falling, full curve, poor fit]
8 | COc1ccc(C(C)=O)cc1CSc1ccc2c(c1)OCCO2 | -27.8 | 7.31 µM [falling, single point] | –
9 | Cc1ccc(OC(C)C)c(CN(CCO)CCO)c1 | -3.33 | 1.03 µM [falling, full curve] | –
10 | Cc1c(C(=O)N2CCOCC2)oc2ccc(S(=O)(=O)N3CCCCCC3)cc12 | -11.2 | 25.9 µM [rising, partial curve] | –
11 | Cc1ccc(NC(=O)CC(=O)Nc2ccc(C)cc2C)c(C)c1 | 37.8 | 6.51 µM [rising, single point] | –
12 | CCc1cccc(NC2c3ccccc3C(=O)N2c2cccnc2)c1 (centres undefined) | 30.4 | 2.91 µM [rising, partial curve] | 7.31 µM [rising, partial curve]
13 | COc1ccc(OC)c(/C=C2\SC(N3CCCCC3)=NC2=O)c1 | 23.4 | 0.58 µM [rising, single point] | –
14 | COc1cnn(-c2ccccc2)c(=O)c1N(C)C | 5 | 0.13 µM [falling, full curve, poor fit] | –
15 | O=C(COc1ccc(Br)cc1)Nc1nnc(C2CC2)s1 | 4.15 | 0.0146 µM [rising, full curve, poor fit] | –
16 | Cc1cccc(N2C(=O)N3[C@H](c4ccc(F)cc4)[C@@H]4C(=O)N(C5CCCCC5)C(=O)[C@@H]4[C@]3(Cc3ccc(Cl)cc3)C2=O)c1 | – | 29.1 µM [falling, single point] | –
17 | CCc1cccc(NS(=O)(=O)c2ccc3c(c2)NC(=O)CC(=O)N3)c1 | 1.91 | 0.13 µM [falling, full curve, poor fit] | –
18 | Oc1cccc(Nc2ncnc3c2oc2ccccc23)c1 | -20.8 | – | –
19 | CCOC(=O)c1ccc(NC(=S)N2CCSC2c2ccc(Cl)cc2)cc1 (centres undefined) | -7.57 | 1.03 µM [rising, full curve] | –
20 | CCOC(=O)N1CCN(C(=O)CN(c2cccc(C)c2)S(=O)(=O)c2ccc(C)cc2)CC1 | – | 6.51 µM [falling, partial curve] | –
21 | O=C(NC1CCCC1)c1cc(COc2ccc3ncccc3c2)on1 | -19.9 | 23.1 µM [falling, single point] | –

Random excerpt: two records from the list
Row | Structure (SMILES) | cell number change [%] | AC50 [1] | AC50 [2]
8 | COc1ccc(C(C)=O)cc1CSc1ccc2c(c1)OCCO2 | -27.8 | 7.31 µM [falling, single point] | –
10 | Cc1c(C(=O)N2CCOCC2)oc2ccc(S(=O)(=O)N3CCCCCC3)cc12 | -11.2 | 25.9 µM [rising, partial curve] | –

(continued)

Row | Structure (SMILES) | cell number change [%] | AC50 [1] | AC50 [2]
22 | COc1cc(C(C)=O)ccc1Oc1ccc(S(=O)(=O)N2CCOCC2)cn1 | -8.27 | – | –
23 | CCOc1ccc(Cn2nnc(C(=O)Nc3cc(C)cc(C)c3)c2N)cc1 | – | 29.1 µM [rising, single point] | –
24 | COc1ccc(CN2Cc3cccc4c3[C@@H](CC2=O)[C@H](O)[C@H](O)C4)cc1 | 6.38 | 29.1 µM [rising, single point] | –
25 | O=C(CSc1nnc(Cc2ccccc2)o1)N1CCCC1 | 20.7 | 0.731 µM [falling, single point] | –
26 | Cc1nn(-c2ccc(N3CCCCC3)nn2)c(C)c1CCC(=O)Nc1ccc(F)c(F)c1 | 10.1 | 0.184 µM [falling, full curve, poor fit] | –
27 | CCOC(=O)Cn1c(=O)oc2cc(S(=O)(=O)NCCc3ccc(OCC)c(OCC)c3)ccc21 | 71 | 20.6 µM [rising, single point] | –
28 | CCC(C)c1ccc(C2C3=C(Nc4nc(N)[nH]c(=O)c42)c2ccccc2C3=O)cc1 (centres undefined) | -14.7 | – | –
29 | C/C(=N\NC(=O)CNC(=O)c1cccc(F)c1)c1ccc2ccccc2c1 | 74.4 | – | 1.64 µM [falling, single point]
30 | COC(=O)[C@@H]1[C@@H](C#N)C2(c3ccccc3-c3ccccc32)N(c2ccc(Cl)cc2)N1C#N | -74 | 20.6 µM [falling, partial curve] | 23.1 µM [falling, single point]
31 | COc1ccc(C(=O)NCC(=O)NCC2(N(C)C)CCCCC2)cc1OC | -41.1 | 0.82 µM [rising, full curve, poor fit] | 9.2 µM [falling, partial curve, poor fit]
32 | COc1ccc(N/N=C(/Oc2ccc([N+](=O)[O-])cc2)C(C)=O)cc1 | -47 | 18.4 µM [falling, single point] | 20.6 µM [falling, single point]
33 | CN(C)C(CNS(=O)(=O)c1ccc(Cl)cc1)c1cccnc1 (centres undefined) | 32.2 | 1.16 µM [rising, full curve] | 0.92 µM [rising, full curve, poor fit]
34 | O=C1CSC(c2ccccc2)N1CCc1ccccc1 (centres undefined) | -5.84 | 5.8 µM [rising, single point] | –
35 | Cc1ccc(C(=O)NC(C)c2ccc(-n3ccnc3)cc2)cc1S(=O)(=O)N1CCOCC1 (centres undefined) | – | – | 0.116 µM [rising, full curve, poor fit]
36 | COc1ccc(NC(=O)c2cccc(S(=O)(=O)NCc3ccco3)c2)c(OC)c1 | – | 0.259 µM [rising, partial curve, poor fit] | –
37 | CC/C(=C\C(=O)c1ccncc1)Nc1ccc(O)cc1 | -14.9 | – | –
38 | CCOc1ccc(OCC)c(NC(=O)C2CCCN(S(=O)(=O)c3ccc(C)cc3)C2)c1 (centres undefined) | 19.7 | 18.4 µM [rising, single point] | –
39 | O=C(Nc1ccc(Cl)cn1)c1cccnc1 | 22.7 | 6.51 µM [falling, single point] | –
40 | Cc1ccc(NC(=O)C2C3CCCCC32)cc1[N+](=O)[O-] (centres undefined) | -0.549 | 20.6 µM [rising, partial curve] | –
41 | O=C(NC1CCN(C(=S)Nc2ccccc2)CC1)C1CCCCC1 | 5.41 | 29.1 µM [rising, single point] | –
42 | CCN1C=C(Cc2ccccc2C)C2=C(C1)C(c1ccccc1C)C(C#N)=C(N)O2 (centres undefined) | -37.5 | 0.92 µM [rising, full curve, poor fit] | –

Some of these compounds in order of SMILES length, ascending:
Row | Structure (SMILES) | cell number change [%] | AC50 [1] | AC50 [2]
41 | O=C(NC1CCN(C(=S)Nc2ccccc2)CC1)C1CCCCC1 | 5.41 | 29.1 µM [rising, single point] | –
19 | CCOC(=O)c1ccc(NC(=S)N2CCSC2c2ccc(Cl)cc2)cc1 (centres undefined) | -7.57 | 1.03 µM [rising, full curve] | –
23 | CCOc1ccc(Cn2nnc(C(=O)Nc3cc(C)cc(C)c3)c2N)cc1 | – | 29.1 µM [rising, single point] | –

The results go on:

Row | Structure (SMILES) | cell number change [%] | AC50 [1] | AC50 [2]
43 | COC(CNC(=O)c1cc(C)nn1-c1ccccc1)OC | 109 | 29.1 µM [rising, single point] | 29.1 µM [rising, single point]
44 | O=C(O)CCC(=O)c1ccc(-c2ccccc2)cc1 | 12.4 | 0.731 µM [falling, full curve, poor fit] | –
45 | CNc1sc(C(=O)c2cccs2)c(N)c1-c1nc2ccccc2s1 | -19.8 | – | –
46 | CC(C)(C)OC(=O)NC(Cc1ccccc1)C(=O)N1CCC(C(=O)NCC(=O)Nc2ccc(F)cc2)CC1 (centres undefined) | -0.472 | – | –
47 | CCOC(=O)c1ccc(NC=C2C(=O)OC3(CCCCC3)OC2=O)cc1 | -9.96 | 6.51 µM [falling, single point] | –
48 | O=C(Nc1cccc(-c2cccc(Cl)c2)c1)C1CCN(Cc2ccc(CO)o2)CC1 | -17.8 | 29.1 µM [rising, single point] | –
49 | CCc1ccc(NC(=O)CSc2nc3cc(C(=O)OC)ccc3c(=O)n2Cc2ccco2)cc1 | -29.7 | – | 0.82 µM [falling, full curve, poor fit]
50 | O=C(NCCS(=O)(=O)N1CCN(c2ccccc2F)CC1)c1cccs1 | – | 2.91 µM [rising, single point] | 6.51 µM [rising, single point]
51 | O=C1CCN(Cc2ccc(Br)cc2)CCN1CCO | 5.39 | – | –
52 | Cc1ccc(C(=O)Nc2oc(-c3ccccc3)cc2C#N)cc1 | 1.23 | 4.61 µM [rising, single point] | –
53 | CCOCCCNC(=S)N1CCN(c2nc(-c3ccccc3)cs2)CC1 | -42.9 | – | 18.4 µM [falling, single point]
54 | Oc1ccccc1/C=N/N1CCN(c2ccccn2)CC1 | 9.07 | 0.58 µM [rising, single point] | –
55 | Cc1cc(C(C)(C)C)cc(C)c1C(=O)O | -47.7 | 18.4 µM [falling, partial curve, poor fit] | 16.4 µM [falling, single point]
56 | CC(C)CN1C(=O)c2ccc(C(=O)Nc3ccccc3C(=O)O)cc2C1=O | -36.2 | – | 32.6 µM [falling, single point]
57 | O=C(COC(=O)c1n[nH]c2ccccc12)c1cccc(Br)c1 | 26.5 | 29.1 µM [rising, single point] | –
58 | CCOC(=O)C1CCN(C(=O)COC(=O)c2ccc3[nH]c4c(c3c2)CCCC4)CC1 | -32.2 | – | –
59 | COC(=O)c1[nH]c2ccccc2c1NC(=O)CN1CCN(Cc2ccc3c(c2)OCO3)CC1 | 2.14 | – | –
60 | O=c1[nH]c(/C=C\c2ccccc2F)nc(O)c1[N+](=O)[O-] | 12.4 | – | –
61 | CCCn1nnc(NC(=S)NC(=O)/C=C/c2ccc(Cl)cc2)n1 | 20.7 | 25.9 µM [rising, single point] | –
